Results are given in words; binding and its absence hold for the method and conditions named. Binding seen in cells or lysates may run through a third protein. For part of these data: A result given as binding can be weak or reduced; the word gives no strength. For part of these data: Sequences can lack the tags named with a protein. Values belong to the molecule of their own block, whether it stands above or below them.
What was measured:
FLAG-TLE2 = FLAG-TLE2 (UniProt Q9WVB2); experiment: co-IP; HEK293T cells co-transfected with a FLAG-tagged and a Myc-tagged construct; lysis in 50 mM Tris-HCl pH 7.4, 150 mM NaCl, 1 mM EDTA, 0.5% NP-40, 1 mM DTT; anti-FLAG M2 affinity gel at 4°C; blots with anti-FLAG and anti-Myc
FLAG-Tbx6 (mouse) = target: T1, FLAG-Tbx6 (mouse) (UniProt P70327); experiment: as above
T1 sequence: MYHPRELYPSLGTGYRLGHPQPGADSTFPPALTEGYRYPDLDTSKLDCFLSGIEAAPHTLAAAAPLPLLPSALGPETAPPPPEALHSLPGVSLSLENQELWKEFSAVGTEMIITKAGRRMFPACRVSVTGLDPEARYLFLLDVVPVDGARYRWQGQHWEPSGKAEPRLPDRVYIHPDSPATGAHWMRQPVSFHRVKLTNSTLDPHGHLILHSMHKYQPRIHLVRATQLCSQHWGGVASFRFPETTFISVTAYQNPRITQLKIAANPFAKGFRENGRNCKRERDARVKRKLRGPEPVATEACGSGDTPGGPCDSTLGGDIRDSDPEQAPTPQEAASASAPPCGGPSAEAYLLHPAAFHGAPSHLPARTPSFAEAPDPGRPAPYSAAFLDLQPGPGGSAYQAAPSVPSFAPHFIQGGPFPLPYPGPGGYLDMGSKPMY

Amino acid sequences for entries named in this document (tags omitted).
UniProt Q9WVB2: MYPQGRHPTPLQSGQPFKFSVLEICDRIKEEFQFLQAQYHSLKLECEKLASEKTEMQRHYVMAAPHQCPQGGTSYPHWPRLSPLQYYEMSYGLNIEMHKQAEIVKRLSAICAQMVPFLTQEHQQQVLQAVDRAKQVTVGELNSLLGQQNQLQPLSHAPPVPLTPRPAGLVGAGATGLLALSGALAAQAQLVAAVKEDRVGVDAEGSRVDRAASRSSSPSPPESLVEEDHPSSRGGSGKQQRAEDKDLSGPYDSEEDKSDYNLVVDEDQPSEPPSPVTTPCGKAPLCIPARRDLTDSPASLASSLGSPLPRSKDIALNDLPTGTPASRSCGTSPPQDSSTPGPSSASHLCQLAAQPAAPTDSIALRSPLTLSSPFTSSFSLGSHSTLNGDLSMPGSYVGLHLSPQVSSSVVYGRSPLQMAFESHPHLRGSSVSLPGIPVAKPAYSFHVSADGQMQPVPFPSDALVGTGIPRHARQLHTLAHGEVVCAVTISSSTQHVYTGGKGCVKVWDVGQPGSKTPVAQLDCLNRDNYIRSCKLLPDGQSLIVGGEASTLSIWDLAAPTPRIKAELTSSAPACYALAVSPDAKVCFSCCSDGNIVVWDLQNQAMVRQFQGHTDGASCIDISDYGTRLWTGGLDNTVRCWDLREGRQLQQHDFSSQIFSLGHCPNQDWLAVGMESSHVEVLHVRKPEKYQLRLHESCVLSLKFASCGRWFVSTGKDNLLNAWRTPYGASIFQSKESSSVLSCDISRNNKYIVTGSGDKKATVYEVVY
UniProt Q62440: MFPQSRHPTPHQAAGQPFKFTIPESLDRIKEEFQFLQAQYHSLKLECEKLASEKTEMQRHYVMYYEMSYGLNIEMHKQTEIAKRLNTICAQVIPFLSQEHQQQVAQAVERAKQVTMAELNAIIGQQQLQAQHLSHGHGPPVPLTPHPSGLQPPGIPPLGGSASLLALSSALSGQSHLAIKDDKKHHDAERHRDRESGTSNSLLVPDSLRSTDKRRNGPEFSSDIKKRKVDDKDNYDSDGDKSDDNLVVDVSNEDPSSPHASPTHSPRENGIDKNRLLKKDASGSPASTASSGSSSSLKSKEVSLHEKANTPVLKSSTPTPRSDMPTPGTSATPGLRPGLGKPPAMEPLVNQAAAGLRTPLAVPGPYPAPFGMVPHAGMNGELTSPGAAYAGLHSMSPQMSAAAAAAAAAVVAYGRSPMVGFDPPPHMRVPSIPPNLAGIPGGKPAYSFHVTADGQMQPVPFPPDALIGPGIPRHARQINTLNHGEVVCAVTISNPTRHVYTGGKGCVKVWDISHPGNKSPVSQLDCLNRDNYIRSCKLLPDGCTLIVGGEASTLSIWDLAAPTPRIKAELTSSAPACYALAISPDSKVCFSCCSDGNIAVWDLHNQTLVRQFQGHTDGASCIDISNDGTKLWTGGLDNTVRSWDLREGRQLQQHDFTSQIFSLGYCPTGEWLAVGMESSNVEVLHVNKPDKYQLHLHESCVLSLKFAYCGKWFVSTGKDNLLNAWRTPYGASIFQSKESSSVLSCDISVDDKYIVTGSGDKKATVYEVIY

FLAG-TLE1 (mouse) = FLAG-TLE1 (mouse) (UniProt Q62440); experiment: as above
[1] = target: FLAG-Tbx6_(ΔT-box) (mouse); experiment: as above
[2] = target: FLAG-Tbx6_(Δ124~152) (mouse) (UniProt P70327); experiment: as above
[3] = target: GST-Tbx6_(Δ124-152aa) (mouse) (UniProt P70327); experiment: pull-down; supernatant of sonicated E. coli with GST or GST-Tbx6 (or mutant) mixed with purified His-Ripply2 and glutathione-sepharose 4FF, 2 hr; 25 mM HEPES-KOH pH 7.4, 150 mM NaCl, 0.1% NP-40, 1 mM DTT, 1 mM EDTA; blot with anti-Ripply2 (and anti-His); only the binder purified

binding (FLAG-TLE2): binds | binding (FLAG-Tbx6 (mouse)): no binding | binding (FLAG-TLE1 (mouse)): binds
Molecule: Myc-Ripply2_(ΔFPIQ) (from UniProt Q2WG76)

binding (FLAG-TLE2): no binding | binding (FLAG-Tbx6 (mouse)): no binding | binding (FLAG-TLE1 (mouse)): no binding
Molecule: Myc-Ripply2_(ΔWRPW) (from UniProt Q2WG76)

binding [1]: no binding | binding [2]: binds
B1: Myc-Ripply2 (protein, UniProt Q2WG76 1-128)
chain: MDTTESAESAHNPARPPSRSRCPPSAQPGSEGFWRPWVRTPGEKEKRTGPRAAEALPSGPGMAEASGKLLQYQHPVRLFWPKSKCYDYLYQEAETLLKNFPIQATISFYEDSDSEDEIEGLACENQSN

binding [3]: binds
B2: His-Ripply2 (protein, UniProt Q2WG76 1-128)
chain: B1 chain
